Results: the supplement of paper PMC10849652
The other results are listed elsewhere or left out.

Protein sequences, listed by entry. Tags and fused reporters are not part of them. Lines headed by an entry give the natural chain unless they say otherwise; changes in a name come on top.
UniProt Q9UNL2: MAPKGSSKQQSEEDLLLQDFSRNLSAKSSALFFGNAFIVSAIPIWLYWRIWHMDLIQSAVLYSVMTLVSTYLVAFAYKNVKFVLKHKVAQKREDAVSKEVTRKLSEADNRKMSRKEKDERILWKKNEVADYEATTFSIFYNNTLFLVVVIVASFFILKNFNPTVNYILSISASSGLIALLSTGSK
UniProt Q658P3: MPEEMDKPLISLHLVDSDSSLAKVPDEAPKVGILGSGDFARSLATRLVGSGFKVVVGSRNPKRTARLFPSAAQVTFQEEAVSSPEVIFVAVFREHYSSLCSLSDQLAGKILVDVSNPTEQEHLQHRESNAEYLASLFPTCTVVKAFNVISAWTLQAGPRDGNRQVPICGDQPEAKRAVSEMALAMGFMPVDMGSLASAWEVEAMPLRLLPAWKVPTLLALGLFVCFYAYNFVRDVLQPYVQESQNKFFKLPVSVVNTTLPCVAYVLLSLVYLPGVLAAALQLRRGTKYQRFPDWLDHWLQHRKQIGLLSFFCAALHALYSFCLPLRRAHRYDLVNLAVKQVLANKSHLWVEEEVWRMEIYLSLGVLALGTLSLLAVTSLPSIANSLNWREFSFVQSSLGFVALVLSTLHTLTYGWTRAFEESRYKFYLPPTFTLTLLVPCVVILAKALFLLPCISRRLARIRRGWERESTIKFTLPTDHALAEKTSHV
UniProt Q8TCT8: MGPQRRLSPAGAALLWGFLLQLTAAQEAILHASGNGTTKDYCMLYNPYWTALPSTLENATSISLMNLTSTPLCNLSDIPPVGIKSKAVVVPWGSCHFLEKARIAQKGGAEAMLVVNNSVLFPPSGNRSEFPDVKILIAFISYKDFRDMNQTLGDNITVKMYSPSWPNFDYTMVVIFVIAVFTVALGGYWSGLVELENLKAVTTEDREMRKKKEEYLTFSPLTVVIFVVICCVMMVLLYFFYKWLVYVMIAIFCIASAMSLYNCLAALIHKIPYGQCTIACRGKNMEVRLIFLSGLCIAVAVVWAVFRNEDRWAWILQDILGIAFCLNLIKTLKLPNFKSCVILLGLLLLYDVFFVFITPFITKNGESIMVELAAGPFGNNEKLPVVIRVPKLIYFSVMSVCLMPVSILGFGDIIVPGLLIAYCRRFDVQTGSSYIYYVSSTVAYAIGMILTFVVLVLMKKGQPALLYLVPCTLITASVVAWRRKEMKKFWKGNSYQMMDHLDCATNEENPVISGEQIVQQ
UniProt Q9Y2D8: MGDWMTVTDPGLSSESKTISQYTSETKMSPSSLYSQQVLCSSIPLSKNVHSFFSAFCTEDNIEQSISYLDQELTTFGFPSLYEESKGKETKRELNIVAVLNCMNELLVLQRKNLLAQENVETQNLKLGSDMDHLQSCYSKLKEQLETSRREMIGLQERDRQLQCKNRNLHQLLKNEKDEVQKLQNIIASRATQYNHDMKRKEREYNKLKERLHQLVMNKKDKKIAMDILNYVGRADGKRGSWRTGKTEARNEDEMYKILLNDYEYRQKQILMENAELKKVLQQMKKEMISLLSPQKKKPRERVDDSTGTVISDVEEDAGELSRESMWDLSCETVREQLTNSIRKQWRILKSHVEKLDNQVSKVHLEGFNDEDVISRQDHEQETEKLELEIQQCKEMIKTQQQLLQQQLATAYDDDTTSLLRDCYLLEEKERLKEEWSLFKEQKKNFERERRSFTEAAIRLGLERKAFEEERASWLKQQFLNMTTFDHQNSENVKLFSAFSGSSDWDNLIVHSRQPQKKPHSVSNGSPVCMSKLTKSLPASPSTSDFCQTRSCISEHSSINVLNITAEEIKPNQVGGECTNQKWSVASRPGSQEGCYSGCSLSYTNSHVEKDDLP
UniProt Q8N5C6: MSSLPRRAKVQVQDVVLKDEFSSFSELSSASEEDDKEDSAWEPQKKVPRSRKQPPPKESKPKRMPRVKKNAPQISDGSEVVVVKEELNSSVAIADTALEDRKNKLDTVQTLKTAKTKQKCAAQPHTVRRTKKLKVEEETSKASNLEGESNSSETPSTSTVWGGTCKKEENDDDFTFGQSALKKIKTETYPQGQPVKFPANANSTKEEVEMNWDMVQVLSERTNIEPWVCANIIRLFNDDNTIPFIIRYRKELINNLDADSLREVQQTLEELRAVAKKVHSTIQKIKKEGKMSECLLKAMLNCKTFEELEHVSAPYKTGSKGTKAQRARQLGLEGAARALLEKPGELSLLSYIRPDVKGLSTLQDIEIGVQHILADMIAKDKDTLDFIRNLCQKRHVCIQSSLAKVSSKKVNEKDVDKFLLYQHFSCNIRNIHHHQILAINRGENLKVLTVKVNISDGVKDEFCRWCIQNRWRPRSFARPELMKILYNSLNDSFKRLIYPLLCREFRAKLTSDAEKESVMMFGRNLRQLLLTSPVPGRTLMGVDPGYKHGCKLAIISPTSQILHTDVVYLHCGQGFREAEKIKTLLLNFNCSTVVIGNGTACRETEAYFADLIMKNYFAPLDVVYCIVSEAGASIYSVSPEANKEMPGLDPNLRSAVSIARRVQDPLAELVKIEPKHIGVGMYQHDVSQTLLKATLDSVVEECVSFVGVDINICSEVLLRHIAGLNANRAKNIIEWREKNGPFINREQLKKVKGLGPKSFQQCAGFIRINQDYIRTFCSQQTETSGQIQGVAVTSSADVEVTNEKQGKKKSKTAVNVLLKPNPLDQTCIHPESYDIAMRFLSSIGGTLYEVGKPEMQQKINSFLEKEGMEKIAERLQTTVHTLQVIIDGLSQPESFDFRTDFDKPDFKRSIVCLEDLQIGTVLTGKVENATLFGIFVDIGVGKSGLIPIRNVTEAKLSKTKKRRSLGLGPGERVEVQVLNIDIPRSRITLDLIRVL
UniProt P49675, whole entry, looked up: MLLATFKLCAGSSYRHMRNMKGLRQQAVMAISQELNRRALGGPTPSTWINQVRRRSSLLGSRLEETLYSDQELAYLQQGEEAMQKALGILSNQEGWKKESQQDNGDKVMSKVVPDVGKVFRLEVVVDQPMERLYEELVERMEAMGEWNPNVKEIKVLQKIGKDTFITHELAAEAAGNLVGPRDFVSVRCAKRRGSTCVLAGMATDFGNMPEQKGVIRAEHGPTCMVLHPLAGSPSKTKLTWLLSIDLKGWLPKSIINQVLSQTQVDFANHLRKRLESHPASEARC
UniProt Q5M775: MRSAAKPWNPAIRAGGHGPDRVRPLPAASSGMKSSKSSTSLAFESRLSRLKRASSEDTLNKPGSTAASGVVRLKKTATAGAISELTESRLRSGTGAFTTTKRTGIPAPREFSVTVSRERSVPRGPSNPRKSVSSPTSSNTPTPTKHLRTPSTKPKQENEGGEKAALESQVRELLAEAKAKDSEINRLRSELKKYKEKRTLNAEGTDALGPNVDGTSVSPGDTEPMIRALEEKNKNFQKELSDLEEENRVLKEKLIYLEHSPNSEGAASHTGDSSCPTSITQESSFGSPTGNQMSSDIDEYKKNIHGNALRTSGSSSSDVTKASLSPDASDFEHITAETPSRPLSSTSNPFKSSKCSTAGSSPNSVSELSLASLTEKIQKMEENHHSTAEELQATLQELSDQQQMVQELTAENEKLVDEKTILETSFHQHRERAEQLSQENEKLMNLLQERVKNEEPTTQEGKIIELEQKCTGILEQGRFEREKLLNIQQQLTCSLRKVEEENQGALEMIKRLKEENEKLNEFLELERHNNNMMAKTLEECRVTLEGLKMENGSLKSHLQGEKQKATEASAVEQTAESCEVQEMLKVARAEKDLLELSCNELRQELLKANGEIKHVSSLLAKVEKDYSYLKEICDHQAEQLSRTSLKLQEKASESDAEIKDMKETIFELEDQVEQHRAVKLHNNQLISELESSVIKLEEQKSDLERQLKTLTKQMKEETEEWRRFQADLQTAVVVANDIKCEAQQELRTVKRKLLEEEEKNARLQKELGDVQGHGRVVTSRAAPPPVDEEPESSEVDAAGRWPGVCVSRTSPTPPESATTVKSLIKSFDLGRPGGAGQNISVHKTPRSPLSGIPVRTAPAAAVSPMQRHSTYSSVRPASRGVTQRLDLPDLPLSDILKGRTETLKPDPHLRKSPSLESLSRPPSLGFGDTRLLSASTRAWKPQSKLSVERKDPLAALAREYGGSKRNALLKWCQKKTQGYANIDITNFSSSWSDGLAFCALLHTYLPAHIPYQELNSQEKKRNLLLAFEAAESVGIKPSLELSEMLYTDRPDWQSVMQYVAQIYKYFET
UniProt Q15532, whole entry, looked up: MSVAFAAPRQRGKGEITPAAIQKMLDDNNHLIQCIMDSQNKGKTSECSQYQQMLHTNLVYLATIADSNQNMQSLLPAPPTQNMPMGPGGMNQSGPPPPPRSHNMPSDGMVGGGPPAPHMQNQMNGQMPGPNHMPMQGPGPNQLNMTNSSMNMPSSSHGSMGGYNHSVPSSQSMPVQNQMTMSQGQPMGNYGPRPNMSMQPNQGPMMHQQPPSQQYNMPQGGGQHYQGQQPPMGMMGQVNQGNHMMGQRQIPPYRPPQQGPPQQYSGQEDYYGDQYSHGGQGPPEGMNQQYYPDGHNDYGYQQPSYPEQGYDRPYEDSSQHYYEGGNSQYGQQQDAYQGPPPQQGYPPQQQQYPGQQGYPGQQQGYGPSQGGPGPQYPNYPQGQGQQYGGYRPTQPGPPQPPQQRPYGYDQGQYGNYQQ
UniProt Q5T280: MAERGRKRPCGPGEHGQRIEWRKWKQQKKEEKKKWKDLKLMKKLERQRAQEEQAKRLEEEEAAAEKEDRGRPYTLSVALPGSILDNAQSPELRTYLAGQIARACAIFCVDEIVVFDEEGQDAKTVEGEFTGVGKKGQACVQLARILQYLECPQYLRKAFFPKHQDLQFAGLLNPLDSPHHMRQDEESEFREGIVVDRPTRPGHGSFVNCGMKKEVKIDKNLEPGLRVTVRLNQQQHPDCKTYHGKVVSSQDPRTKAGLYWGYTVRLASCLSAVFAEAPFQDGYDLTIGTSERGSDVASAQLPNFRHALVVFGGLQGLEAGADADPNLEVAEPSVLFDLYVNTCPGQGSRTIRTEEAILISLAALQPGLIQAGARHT
UniProt Q13103: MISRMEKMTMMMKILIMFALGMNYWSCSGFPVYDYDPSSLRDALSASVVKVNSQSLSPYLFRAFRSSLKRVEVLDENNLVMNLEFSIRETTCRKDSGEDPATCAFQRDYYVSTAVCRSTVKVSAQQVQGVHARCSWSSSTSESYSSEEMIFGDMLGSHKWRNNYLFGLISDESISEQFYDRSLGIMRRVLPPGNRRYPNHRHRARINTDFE
UniProt O43278: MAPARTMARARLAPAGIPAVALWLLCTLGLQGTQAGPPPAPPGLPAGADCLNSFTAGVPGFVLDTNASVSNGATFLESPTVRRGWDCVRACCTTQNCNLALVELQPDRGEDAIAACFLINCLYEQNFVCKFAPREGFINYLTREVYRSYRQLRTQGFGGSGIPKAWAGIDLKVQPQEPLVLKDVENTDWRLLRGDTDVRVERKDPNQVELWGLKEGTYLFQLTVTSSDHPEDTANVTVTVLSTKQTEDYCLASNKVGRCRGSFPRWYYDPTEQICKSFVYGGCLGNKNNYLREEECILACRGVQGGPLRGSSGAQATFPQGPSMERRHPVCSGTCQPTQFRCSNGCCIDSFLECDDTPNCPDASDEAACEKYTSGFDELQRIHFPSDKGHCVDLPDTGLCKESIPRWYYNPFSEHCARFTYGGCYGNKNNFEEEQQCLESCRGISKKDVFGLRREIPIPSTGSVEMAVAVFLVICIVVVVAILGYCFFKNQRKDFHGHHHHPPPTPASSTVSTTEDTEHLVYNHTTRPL
UniProt Q7Z698: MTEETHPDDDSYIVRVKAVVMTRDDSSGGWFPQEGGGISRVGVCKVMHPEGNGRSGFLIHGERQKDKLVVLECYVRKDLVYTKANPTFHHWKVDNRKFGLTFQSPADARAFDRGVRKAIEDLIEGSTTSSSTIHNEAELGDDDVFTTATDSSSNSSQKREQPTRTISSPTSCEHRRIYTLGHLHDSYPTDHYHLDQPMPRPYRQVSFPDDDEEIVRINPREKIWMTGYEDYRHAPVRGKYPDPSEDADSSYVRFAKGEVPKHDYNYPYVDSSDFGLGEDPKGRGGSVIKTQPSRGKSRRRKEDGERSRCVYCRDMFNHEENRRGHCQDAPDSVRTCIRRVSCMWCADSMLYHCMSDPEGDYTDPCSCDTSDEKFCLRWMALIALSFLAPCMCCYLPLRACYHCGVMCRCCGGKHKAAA
UniProt Q8NCJ5: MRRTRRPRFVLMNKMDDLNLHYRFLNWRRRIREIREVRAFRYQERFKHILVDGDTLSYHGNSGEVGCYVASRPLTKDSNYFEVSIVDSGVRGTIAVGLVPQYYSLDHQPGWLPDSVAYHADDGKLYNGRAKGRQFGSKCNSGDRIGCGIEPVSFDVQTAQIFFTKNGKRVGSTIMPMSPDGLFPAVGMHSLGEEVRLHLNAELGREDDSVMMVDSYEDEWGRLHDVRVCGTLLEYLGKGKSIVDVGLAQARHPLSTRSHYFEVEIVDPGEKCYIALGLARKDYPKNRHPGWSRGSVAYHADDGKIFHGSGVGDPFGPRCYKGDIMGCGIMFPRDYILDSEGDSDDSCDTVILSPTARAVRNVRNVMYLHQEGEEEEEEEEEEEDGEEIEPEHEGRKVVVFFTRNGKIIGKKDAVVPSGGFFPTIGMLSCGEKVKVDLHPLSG

Key:
Assay in all cases: log2 fold change, soluble protein after heating vs DMSO (PISA); higher = thermal stabilisation; K562 lysate, 10 uM; active = over 0.2 and 3.5 SD of the protein, either way, in both replicates (recomputed)
vemurafenib = compound: CCCS(=O)(=O)Nc1ccc(F)c(C(=O)c2c[nH]c3ncc(-c4ccc(Cl)cc4)cc23)c1F [vemurafenib]
In short: (§1)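 The values are log-two fold changes in thermal stability compared with solvent controls and come from duplicates. They were obtained by TMTpro 16plex LC-MS/MS, with channel sums equalised, on the supernatant after 21,000xg for 90 min. That supernatant came from crude K562 extract at 1 mg/mL protein treated with 10 μM compound for 30 min, heated for 3 min across 48°C-58°C, pooled and brought to 0.5% NP-40 at 4°C.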

[1] = compound: CCCS(=O)(=O)Nc1ccc(F)c(C(=O)c2c[nH]c3ncc(Cl)cc23)c1F
In short: as §1

barasertib = compound: CCN(CCCOc1ccc2c(Nc3cc(CC(=O)Nc4cccc(F)c4)[nH]n3)ncnc2c1)CCOP(=O)(O)O [barasertib]
In short: as §1

[2] = compound: CC[C@@H]1C(=O)N(C)c2cnc(Nc3ccc(C(=O)NC4CCN(C)CC4)cc3OC)nc2N1C1CCCC1
In short: as §1

volasertib = compound: CC[C@@H]1C(=O)N(C)c2cnc(Nc3ccc(C(=O)N[C@H]4CC[C@H](N5CCN(CC6CC6)CC5)CC4)cc3OC)nc2N1C(C)C [volasertib]
In short: as §1

[3] = compound: CCn1c(C(=O)N(C2CC2)C2CC2)cc2c3c(ncn3C)c(Nc3cc(C)n(C)n3)nc21
In short: as §1

[4] = compound: CCn1cc(-c2ccnc3[nH]c(-c4cccc(CN(C)C)c4)cc23)c(-c2ccc(NC(=O)N(C)C)cc2)n1
In short: as §1

[5] = compound: CN1CCC(CNc2ccc3ncc(-c4cccc(OC(F)(F)F)c4)n3n2)CC1
In short: as §1

saracatinib = compound: CN1CCN(CCOc2cc(OC3CCOCC3)c3c(Nc4c(Cl)ccc5c4OCO5)ncnc3c2)CC1 [saracatinib]
In short: as §1

sotrastaurin = compound: CN1CCN(c2nc(C3=C(c4c[nH]c5ccccc45)C(=O)NC3=O)c3ccccc3n2)CC1 [sotrastaurin]
In short: as §1

alvocidib = compound: CN1CC[C@H](c2c(O)cc(O)c3c(=O)cc(-c4ccccc4Cl)oc23)[C@H](O)C1 [alvocidib]
In short: as §1

Tubastatin A = compound: CN1CCc2c(c3ccccc3n2Cc2ccc(C(=O)NO)cc2)C1 [Tubastatin A]
In short: as §1

[6] = compound: CNC(=O)C1=CC=CC=C1NC2=NC(=NC=C2Cl)NC3=C(C=C(C=C3)N4CCOCC4)OC
In short: as §1

defactinib = compound: CNC(=O)c1ccc(Nc2ncc(C(F)(F)F)c(NCc3nccnc3N(C)S(C)(=O)=O)n2)cc1 [defactinib]
In short: as §1

[7] = compound: CNc1nc(-c2ccc3c(N)n[nH]c3c2)cc(N2C[C@@H](C(=O)NC3CCCCC3)CC[C@H]2C)n1
In short: as §1

encorafenib = compound: COC(=O)N[C@@H](C)CNc1nccc(-c2cn(C(C)C)nc2-c2cc(Cl)cc(NS(C)(=O)=O)c2F)n1 [encorafenib]
In short: as §1

[8] = compound: COC(=O)[C@H](CCSC)NC(=O)C1=C(C=C(C=C1)NC[C@H](CS)N)C2=CC=CC=C2
In short: as §1

alisertib = compound: COc1cc(Nc2ncc3c(n2)-c2ccc(Cl)cc2C(c2c(F)cccc2OC)=NC3)ccc1C(=O)O [alisertib]
In short: as §1

[9] = compound: COc1cc2nc(-c3cc(F)ccc3O)nc(N[C@@H]3CNC[C@H]3C(C)(C)O)c2cc1OC
In short: as §1

gefitinib = compound: COc1cc2ncnc(Nc3ccc(F)c(Cl)c3)c2cc1OCCCN1CCOCC1 [gefitinib]
In short: as §1

Target	log2 fold change (vemurafenib)	log2 fold change [1]	log2 fold change (barasertib)	log2 fold change [2]	log2 fold change (volasertib)	log2 fold change [3]	log2 fold change [4]	log2 fold change [5]	log2 fold change (saracatinib)	log2 fold change (sotrastaurin)	log2 fold change (alvocidib)	log2 fold change (Tubastatin A)	log2 fold change [6]	log2 fold change (defactinib)	log2 fold change [7]	log2 fold change (encorafenib)	log2 fold change [8]	log2 fold change (alisertib)	log2 fold change [9]	log2 fold change (gefitinib)
SSR3 isoform 2 (UniProt Q9UNL2)	inactive: -0.22	inactive: -0.034	inactive: 0.067	inactive: -0.016	inactive: -0.04	inactive: 0.014	inactive: 0.291	inactive: -0.031	inactive: 0.018	inactive: 0.029	inactive: 0.031	inactive: -0.006	inactive: -0.05	inactive: 0.045	inactive: 0.033	inactive: -0.035	inactive: -0.042	inactive: -0.061	inactive: -0.045	inactive: 0.007
STEAP3 isoform 2 (UniProt Q658P3)	inactive: 0.002	inactive: 0.035	inactive: 0.032	inactive: 0.082	inactive: -0.035	inactive: -0.037	inactive: -0.034	inactive: 0.108	inactive: -0.041	inactive: 0.056	inactive: -0.027	inactive: -0.061	–	inactive: 0.045	inactive: -0.082	inactive: -0.016	inactive: 0.018	inactive: -0.047	inactive: -0.003	inactive: 0.051
STARD9 (UniProt Q9P2P6)	inactive: 0.067	inactive: 0.056	–	inactive: -0.094	inactive: -0.063	inactive: 0.151	inactive: 0.012	inactive: -0.075	inactive: 0.038	inactive: 0.012	inactive: 0	inactive: -0.008	inactive: 0.059	inactive: -0.011	inactive: -0.015	inactive: 0.01	inactive: 0.063	inactive: -0.072	inactive: -0.081	inactive: -0.002
SPPL2A (UniProt Q8TCT8)	inactive: 0.312	inactive: 0.023	inactive: 0.077	inactive: -0.016	inactive: 0.011	inactive: -0.062	inactive: -0.196	inactive: 0.202	–	inactive: -0.029	inactive: 0.013	inactive: 0.107	inactive: 0.103	inactive: -0.054	–	inactive: 0.124	inactive: -0.063	–	inactive: 0.099	–
SSX2IP (UniProt Q9Y2D8)	inactive: 0.034	–	–	inactive: -0.002	–	inactive: 0.119	inactive: 0.131	inactive: 0.178	–	–	inactive: -0.184	inactive: -0.222	–	inactive: 0.085	–	inactive: 0.143	inactive: 0.138	inactive: -0.067	–	inactive: 0.067
SRBD1 (UniProt Q8N5C6)	inactive: 0.109	inactive: -0.001	inactive: 0.07	inactive: 0.048	inactive: 0.056	inactive: 0.019	inactive: -0.089	inactive: 0.12	inactive: 0.033	inactive: -0.078	inactive: 0.063	inactive: -0.081	inactive: 0.081	inactive: 0.126	inactive: -0.031	inactive: 0.103	inactive: -0.007	inactive: -0.019	inactive: -0.069	inactive: -0.06
STAR (UniProt P49675)	inactive: 0.02	–	–	inactive: 0.074	–	inactive: 0.008	inactive: 0.043	inactive: -0.03	inactive: 0.006	inactive: 0.061	inactive: -0.024	active: 0.448	inactive: 0.073	inactive: 0.034	inactive: 0.005	inactive: -0.052	inactive: 0.063	inactive: 0.133	–	inactive: -0.056
SPECC1 (UniProt Q5M775)	inactive: -0.068	inactive: 0.016	inactive: 0.147	inactive: 0.122	inactive: -0.031	inactive: -0.021	inactive: -0.017	inactive: 0.009	inactive: 0.106	inactive: 0.049	inactive: -0.017	inactive: 0.013	inactive: 0.054	inactive: 0.084	inactive: 0.042	inactive: 0.025	inactive: -0.096	inactive: -0.022	inactive: -0.006	inactive: -0.017
SS18 (UniProt Q15532)	inactive: -0.04	inactive: -0.024	–	inactive: -0.102	inactive: 0.143	inactive: 0.021	inactive: -0.075	inactive: -0.224	inactive: 0.052	inactive: -0.036	inactive: 0.076	inactive: 0.013	inactive: 0.014	inactive: 0.198	inactive: 0.086	inactive: 0.04	inactive: -0.215	inactive: 0.082	inactive: -0.022	inactive: -0.243
SSH2 (UniProt Q76I76)	inactive: 0	inactive: 0.17	–	inactive: -0.107	inactive: -0.065	inactive: -0.063	inactive: 0.02	inactive: -0.14	inactive: -0.028	inactive: 0.067	inactive: -0.081	inactive: 0.034	inactive: 0.029	inactive: -0.002	inactive: 0.061	inactive: 0.266	inactive: 0.307	–	inactive: 0.025	–
SPOUT1 (UniProt Q5T280)	inactive: 0.077	inactive: -0.006	–	inactive: 0.089	inactive: -0.009	inactive: -0.015	–	–	inactive: 0.015	–	–	inactive: -0.152	inactive: -0.037	inactive: -0.154	inactive: 0.019	inactive: 0.054	inactive: 0.164	inactive: 0.028	inactive: -0.024	inactive: 0.038
SPP2 (UniProt Q13103)	–	inactive: 0.089	inactive: -0.026	–	inactive: -0.087	–	inactive: -0.09	inactive: 0.098	–	–	inactive: 0.02	–	–	–	–	–	–	–	inactive: 0.037	–
SPINT1 (UniProt O43278)	–	inactive: 0.028	inactive: -0.012	–	inactive: 0.037	–	inactive: -0.001	inactive: -0.018	–	inactive: 0.129	inactive: 0.02	–	inactive: -0.005	–	–	–	–	inactive: -0.007	inactive: -0.003	inactive: 0.058
SPRED2 (UniProt Q7Z698)	–	–	inactive: 0.005	–	–	–	–	–	–	–	–	–	–	–	–	–	–	inactive: -0.012	–	inactive: 0.049
SPC24 (UniProt K7ESQ2)	–	–	–	inactive: 0.093	–	–	inactive: -0.036	inactive: -0.046	–	inactive: -0.066	inactive: 0.009	–	–	–	–	inactive: 0.05	inactive: -0.028	–	–	–
SRP14 (UniProt H0YLW0)	–	inactive: 0.013	inactive: 0.037	–	inactive: -0.02	inactive: -0.576	inactive: -0.199	inactive: 0.231	inactive: 0.069	inactive: -0.097	inactive: -0.054	inactive: 0.376	inactive: 0.103	–	inactive: 1.02	–	–	–	inactive: 0.182	–
SPRYD3 (UniProt Q8NCJ5)	–	–	inactive: 0.007	–	–	inactive: -0.022	inactive: -0.369	inactive: -0.146	–	inactive: 0	inactive: 0.214	inactive: -0.301	inactive: 0.172	–	–	–	–	–	–	–

Record cards, from the list above. Values in the order: log2 fold change (vemurafenib)	log2 fold change [1]	log2 fold change (barasertib)	log2 fold change [2]	log2 fold change (volasertib)	log2 fold change [3]	log2 fold change [4]	log2 fold change [5]	log2 fold change (saracatinib)	log2 fold change (sotrastaurin)	log2 fold change (alvocidib)	log2 fold change (Tubastatin A)	log2 fold change [6]	log2 fold change (defactinib)	log2 fold change [7]	log2 fold change (encorafenib)	log2 fold change [8]	log2 fold change (alisertib)	log2 fold change [9]	log2 fold change (gefitinib)
STEAP3 isoform 2 (UniProt Q658P3) is listed as inactive: 0.002	inactive: 0.035	inactive: 0.032	inactive: 0.082	inactive: -0.035	inactive: -0.037	inactive: -0.034	inactive: 0.108	inactive: -0.041	inactive: 0.056	inactive: -0.027	inactive: -0.061	–	inactive: 0.045	inactive: -0.082	inactive: -0.016	inactive: 0.018	inactive: -0.047	inactive: -0.003	inactive: 0.051
STARD9 (UniProt Q9P2P6) is listed as inactive: 0.067	inactive: 0.056	–	inactive: -0.094	inactive: -0.063	inactive: 0.151	inactive: 0.012	inactive: -0.075	inactive: 0.038	inactive: 0.012	inactive: 0	inactive: -0.008	inactive: 0.059	inactive: -0.011	inactive: -0.015	inactive: 0.01	inactive: 0.063	inactive: -0.072	inactive: -0.081	inactive: -0.002
